Some of the results follow. Single values are uncertain, as repeats are few or missing.

This test relates to Saccharomyces cerevisiae BY4743. Briefly: growth (OD600) with compound + IPBC relative to untreated control; higher = less growth inhibition. To be noted: compound concentration: 133 uM; IPBC concentration: 0.5 ug/ml; 20 h. As to the method: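 NMCCC compounds (133 uM) combined with IPBC (0.5 ug/ml) against Saccharomyces cerevisiae BY4743 in YPD, 96-well plates. Growth was read as OD600 at 20 h and expressed as % of the untreated control. Single pass.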
For `CCN(CC(=O)NC1CCS(=O)(=O)C1)C(=O)c1ccc(-n2cncn2)cc1` (stereo unspecified) + CCCCNC(=O)OCC#CI [3-iodo-2-propynyl butylcarbamate (IPBC)], the growth is 99.8%.

For the molecule `CSc1nc(NCCN(C)C)c(C#N)c(-c2ccc(C(C)(C)C)cc2)n1` + CCCCNC(=O)OCC#CI [3-iodo-2-propynyl butylcarbamate (IPBC)], the growth turned out to be 4.67%.

As for `CC(=O)N1c2ccc(S(=O)(=O)NC(C(=O)Nc3ccccn3)C(C)C)cc2CC1C` (stereo unspecified) + CCCCNC(=O)OCC#CI [3-iodo-2-propynyl butylcarbamate (IPBC)], the growth is 104%.

On to `CCc1ccc(S(=O)(=O)N(CCCN2CCCC2=O)CC(=O)N2CCNCC2)cc1` + CCCCNC(=O)OCC#CI [3-iodo-2-propynyl butylcarbamate (IPBC)], for which the growth turned out to be 105%.

`COC1(C(=O)C(=O)Nc2ccccc2Cl)NC(C)(C)Cc2ccccc21` (stereo unspecified) + CCCCNC(=O)OCC#CI [3-iodo-2-propynyl butylcarbamate (IPBC)]: the growth is 71.6%.

Regarding `CC(C)CCNc1c2c(nc3nncn13)CCC2` + CCCCNC(=O)OCC#CI [3-iodo-2-propynyl butylcarbamate (IPBC)], the growth is 104%.

Regarding `COC(=O)CC(NC(=O)c1sc(-c2ccccn2)nc1C)c1ccc(OC)c(OC)c1` (stereo unspecified) + CCCCNC(=O)OCC#CI [3-iodo-2-propynyl butylcarbamate (IPBC)], the growth turned out to be 103%.

As for `CCCCn1c(=O)[nH]c2nc3cc(NC(C)=O)ccc3nc2c1=O` + CCCCNC(=O)OCC#CI [3-iodo-2-propynyl butylcarbamate (IPBC)], the growth turned out to be 95.2%.

Turning to `COC(=O)\C1=C\N(CC2=CC=CS2)\C=C(/C1C3=CC=CC=C3OC(C)C)C(=O)OC` + CCCCNC(=O)OCC#CI [3-iodo-2-propynyl butylcarbamate (IPBC)], the growth is 93.3%.

As to `CC(C)CCNC(=O)Cn1c(=O)[nH]c2c(-c3ccccc3F)c[nH]c2c1=O` + CCCCNC(=O)OCC#CI [3-iodo-2-propynyl butylcarbamate (IPBC)], the growth amounted to 80.2%.

Regarding `CC1=C(Cl)C=CC=C1NC(=O)C\C2=N\[S](=O)(=O)C3=CC=CC=C3N2` + CCCCNC(=O)OCC#CI [3-iodo-2-propynyl butylcarbamate (IPBC)], the growth worked out at 102%.

In the case of `COc1ccc(-c2noc(CC(=O)N(C)c3cc(C)ccc3C)n2)cc1` + CCCCNC(=O)OCC#CI [3-iodo-2-propynyl butylcarbamate (IPBC)], the growth amounted to 99.8%.

On to `CCn1c(-c2ccc(Br)cc2)cnc1SCC(=O)Nc1ccc(C(N)=O)cc1` + CCCCNC(=O)OCC#CI [3-iodo-2-propynyl butylcarbamate (IPBC)], for which the growth was determined as 76.4%.

Consider `Cc1ccc(/C=C/c2nnc(-c3cccs3)o2)cc1` + CCCCNC(=O)OCC#CI [3-iodo-2-propynyl butylcarbamate (IPBC)], for which the growth was found to be 78.4%.

On to `Cc1ccc(-n2nc(C)c(C(=O)NCC(=O)NCc3ccco3)n2)c(C)c1` + CCCCNC(=O)OCC#CI [3-iodo-2-propynyl butylcarbamate (IPBC)], for which the growth turned out to be 104%.

Take `Nc1cc(C2CC2)nn1Cc1ccccc1` + CCCCNC(=O)OCC#CI [3-iodo-2-propynyl butylcarbamate (IPBC)]: the growth was 111%.

`CCN(CC)CCNC(=O)c1cnn(-c2cccc(C)c2)c1-n1cccc1` + CCCCNC(=O)OCC#CI [3-iodo-2-propynyl butylcarbamate (IPBC)]: the growth was determined as 103%.

On to `Cc1nn(Cn2cc(Cl)cn2)c(C)c1NC(=O)c1ccc(Cl)cc1` + CCCCNC(=O)OCC#CI [3-iodo-2-propynyl butylcarbamate (IPBC)], for which the growth came out at 103%.

Turning to `Cc1ccc(-c2csc(NC(=O)C(C)C)c2C(=O)O)c(C)c1` + CCCCNC(=O)OCC#CI [3-iodo-2-propynyl butylcarbamate (IPBC)], the growth amounted to 95.4%.

Regarding `Cc1cc(Br)cc(C)c1OCC(=O)Nc1sc2c(c1C(N)=O)CCCC2` + CCCCNC(=O)OCC#CI [3-iodo-2-propynyl butylcarbamate (IPBC)], the growth came to 82.8%.

For `CC(C(=O)NC(=O)NC(C)(C)C)N1CCC(c2nc3ccccc3s2)CC1` (stereo unspecified) + CCCCNC(=O)OCC#CI [3-iodo-2-propynyl butylcarbamate (IPBC)], the growth was determined as 98.2%.

Source of the values: the supplement of paper PMC8007513.
